Data: patent US11007270B2, “Polymer-semaxanib moiety conjugates” (Nektar Therapeutics, priority 2010, dated 2021)
Certain results were filed several times, with different values. The other results are left out here. An entry can have further records. The values listed for one entry do not match, cause unknown; dose, time, organism, isomer or construct need not be as stated for each record.

Sequences of proteins named here, by UniProt entry; tags and fusion partners are left off. Residues count along the entry.
UniProt P35968, 20-1356 limits assumed: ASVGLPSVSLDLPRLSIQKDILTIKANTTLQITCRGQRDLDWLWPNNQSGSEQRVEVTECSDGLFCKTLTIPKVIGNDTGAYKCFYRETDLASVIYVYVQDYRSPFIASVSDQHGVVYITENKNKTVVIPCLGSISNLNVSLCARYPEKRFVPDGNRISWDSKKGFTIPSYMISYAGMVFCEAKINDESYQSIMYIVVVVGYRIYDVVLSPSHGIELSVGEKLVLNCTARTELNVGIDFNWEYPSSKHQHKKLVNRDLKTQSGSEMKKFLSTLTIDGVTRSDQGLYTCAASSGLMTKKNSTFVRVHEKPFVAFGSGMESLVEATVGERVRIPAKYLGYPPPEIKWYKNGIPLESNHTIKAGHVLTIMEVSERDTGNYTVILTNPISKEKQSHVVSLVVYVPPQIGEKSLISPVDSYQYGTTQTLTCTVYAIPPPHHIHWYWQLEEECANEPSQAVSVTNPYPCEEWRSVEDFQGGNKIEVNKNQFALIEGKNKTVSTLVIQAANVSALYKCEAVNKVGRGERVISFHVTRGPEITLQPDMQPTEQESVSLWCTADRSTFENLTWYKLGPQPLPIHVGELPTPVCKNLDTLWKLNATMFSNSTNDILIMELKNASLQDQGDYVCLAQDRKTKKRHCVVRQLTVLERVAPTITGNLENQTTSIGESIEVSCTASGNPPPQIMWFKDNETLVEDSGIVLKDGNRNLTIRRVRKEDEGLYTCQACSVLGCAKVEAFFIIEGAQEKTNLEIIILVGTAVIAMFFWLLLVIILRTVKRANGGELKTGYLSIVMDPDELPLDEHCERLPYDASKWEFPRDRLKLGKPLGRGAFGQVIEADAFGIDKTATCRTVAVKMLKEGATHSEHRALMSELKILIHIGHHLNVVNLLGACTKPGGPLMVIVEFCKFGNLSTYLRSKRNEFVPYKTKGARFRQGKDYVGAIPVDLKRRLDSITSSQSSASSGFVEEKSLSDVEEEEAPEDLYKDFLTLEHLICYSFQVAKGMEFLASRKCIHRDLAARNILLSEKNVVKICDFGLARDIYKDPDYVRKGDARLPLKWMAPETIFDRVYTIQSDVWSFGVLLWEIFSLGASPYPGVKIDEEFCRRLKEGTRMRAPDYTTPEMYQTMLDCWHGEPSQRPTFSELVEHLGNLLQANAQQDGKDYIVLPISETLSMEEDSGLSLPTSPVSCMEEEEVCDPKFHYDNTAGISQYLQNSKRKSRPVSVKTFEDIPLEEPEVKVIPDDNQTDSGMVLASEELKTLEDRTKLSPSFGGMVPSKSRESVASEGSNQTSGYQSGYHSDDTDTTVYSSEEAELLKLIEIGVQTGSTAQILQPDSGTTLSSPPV

Target: VEGFR-2 (Homo sapiens, UniProt P35968)
Test: VEGFR-2 kinase inhibition, Caliper screening (fluorescent substrate phosphorylation, electrophoretic separation)
Settings: read-out: VEGFR-2 IC50

For COCCOCCOCCOCCOCCOCCNC(=O)c1c(C)[nH]c(/C=C2\C(=O)Nc3ccc(F)cc32)c1C [mPEG6-semaxanib, (Z)-5-((5-fluoro-2-oxoindolin-3-ylidene)methyl)-2,4-dimethyl-1H-pyrrole-3-mPEG6-amide], the IC50 was 230 nM and 520 nM.
